Binding data for one substance are collected here from article doi:10.1101/180760.

Chains of the proteins cited; added tags and fusions are not shown.
UniProt P21333: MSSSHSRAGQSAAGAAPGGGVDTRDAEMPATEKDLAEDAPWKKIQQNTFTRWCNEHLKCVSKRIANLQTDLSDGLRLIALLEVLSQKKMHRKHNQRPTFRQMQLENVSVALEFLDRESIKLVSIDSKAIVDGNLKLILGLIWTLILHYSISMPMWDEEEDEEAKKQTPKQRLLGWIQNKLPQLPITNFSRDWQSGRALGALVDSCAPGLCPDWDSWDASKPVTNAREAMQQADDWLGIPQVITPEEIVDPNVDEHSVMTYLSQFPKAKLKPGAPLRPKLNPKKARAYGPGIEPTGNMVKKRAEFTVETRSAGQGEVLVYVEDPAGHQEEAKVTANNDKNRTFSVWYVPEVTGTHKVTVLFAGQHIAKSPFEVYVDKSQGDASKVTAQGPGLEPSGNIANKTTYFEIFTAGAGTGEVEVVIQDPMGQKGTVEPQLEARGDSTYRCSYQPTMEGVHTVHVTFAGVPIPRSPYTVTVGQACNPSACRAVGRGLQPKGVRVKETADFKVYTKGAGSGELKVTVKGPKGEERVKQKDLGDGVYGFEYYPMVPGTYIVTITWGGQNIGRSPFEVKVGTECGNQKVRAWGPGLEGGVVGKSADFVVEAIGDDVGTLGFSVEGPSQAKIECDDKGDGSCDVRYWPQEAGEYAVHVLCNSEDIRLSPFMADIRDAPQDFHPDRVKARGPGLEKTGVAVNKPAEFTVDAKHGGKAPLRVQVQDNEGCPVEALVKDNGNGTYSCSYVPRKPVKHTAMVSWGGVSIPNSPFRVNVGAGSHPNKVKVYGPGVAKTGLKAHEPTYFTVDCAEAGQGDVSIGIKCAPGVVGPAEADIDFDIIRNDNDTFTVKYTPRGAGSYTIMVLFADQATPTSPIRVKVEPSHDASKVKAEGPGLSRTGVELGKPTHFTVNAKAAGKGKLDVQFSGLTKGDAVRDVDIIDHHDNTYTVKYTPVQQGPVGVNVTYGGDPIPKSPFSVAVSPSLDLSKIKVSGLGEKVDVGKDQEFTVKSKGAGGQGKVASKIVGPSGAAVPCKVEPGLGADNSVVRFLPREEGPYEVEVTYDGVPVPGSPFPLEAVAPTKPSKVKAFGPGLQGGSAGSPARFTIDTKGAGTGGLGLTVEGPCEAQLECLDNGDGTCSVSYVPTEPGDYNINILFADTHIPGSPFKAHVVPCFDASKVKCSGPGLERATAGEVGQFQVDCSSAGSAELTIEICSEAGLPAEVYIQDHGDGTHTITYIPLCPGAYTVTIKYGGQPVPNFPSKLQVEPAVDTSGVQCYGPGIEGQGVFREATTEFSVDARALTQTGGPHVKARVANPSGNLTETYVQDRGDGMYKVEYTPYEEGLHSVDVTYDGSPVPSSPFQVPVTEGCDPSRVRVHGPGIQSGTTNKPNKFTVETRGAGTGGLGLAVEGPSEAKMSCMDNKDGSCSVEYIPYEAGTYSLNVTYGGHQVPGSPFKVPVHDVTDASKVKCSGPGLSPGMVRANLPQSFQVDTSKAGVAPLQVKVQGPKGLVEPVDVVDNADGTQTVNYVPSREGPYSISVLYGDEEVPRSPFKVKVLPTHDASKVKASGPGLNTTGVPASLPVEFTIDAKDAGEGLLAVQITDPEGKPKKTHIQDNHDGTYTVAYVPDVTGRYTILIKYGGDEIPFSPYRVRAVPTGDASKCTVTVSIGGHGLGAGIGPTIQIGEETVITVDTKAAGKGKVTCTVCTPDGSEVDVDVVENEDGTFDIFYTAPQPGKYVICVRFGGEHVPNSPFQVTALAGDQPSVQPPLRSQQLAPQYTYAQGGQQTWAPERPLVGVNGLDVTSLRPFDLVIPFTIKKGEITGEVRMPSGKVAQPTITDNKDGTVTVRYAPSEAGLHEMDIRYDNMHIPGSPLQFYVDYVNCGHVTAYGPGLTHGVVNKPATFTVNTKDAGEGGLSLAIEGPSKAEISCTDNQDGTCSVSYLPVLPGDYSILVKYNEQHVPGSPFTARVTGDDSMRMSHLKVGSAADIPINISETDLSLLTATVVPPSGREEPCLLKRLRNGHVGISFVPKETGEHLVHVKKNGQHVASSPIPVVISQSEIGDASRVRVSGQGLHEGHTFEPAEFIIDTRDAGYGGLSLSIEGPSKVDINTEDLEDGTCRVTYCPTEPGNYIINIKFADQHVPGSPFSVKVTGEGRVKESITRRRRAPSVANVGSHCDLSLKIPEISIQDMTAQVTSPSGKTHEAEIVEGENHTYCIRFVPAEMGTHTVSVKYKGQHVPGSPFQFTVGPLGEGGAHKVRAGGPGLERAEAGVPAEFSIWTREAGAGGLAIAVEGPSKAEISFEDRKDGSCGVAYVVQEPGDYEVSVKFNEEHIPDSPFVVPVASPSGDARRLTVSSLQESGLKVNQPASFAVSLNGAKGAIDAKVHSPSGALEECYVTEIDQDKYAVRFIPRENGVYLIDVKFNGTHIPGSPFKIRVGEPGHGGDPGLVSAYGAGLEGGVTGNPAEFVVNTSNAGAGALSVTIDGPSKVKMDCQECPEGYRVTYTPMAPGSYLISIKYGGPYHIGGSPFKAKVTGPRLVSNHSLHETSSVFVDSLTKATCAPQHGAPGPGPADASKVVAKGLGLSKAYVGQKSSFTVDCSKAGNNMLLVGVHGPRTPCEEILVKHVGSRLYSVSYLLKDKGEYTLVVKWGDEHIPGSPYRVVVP

Results are given in words; binding and its absence hold for the method and conditions named. In cells and extracts the contact can be indirect. A yes stands for co-enrichment or nearness to the bait. Other partners may have been found. Where a sequence is shown, tags or fusion partners need not be part of it.

The assay has as its target T1, GFP-tagged Phafin2 (UniProt Q9H8W4).
T1 sequence: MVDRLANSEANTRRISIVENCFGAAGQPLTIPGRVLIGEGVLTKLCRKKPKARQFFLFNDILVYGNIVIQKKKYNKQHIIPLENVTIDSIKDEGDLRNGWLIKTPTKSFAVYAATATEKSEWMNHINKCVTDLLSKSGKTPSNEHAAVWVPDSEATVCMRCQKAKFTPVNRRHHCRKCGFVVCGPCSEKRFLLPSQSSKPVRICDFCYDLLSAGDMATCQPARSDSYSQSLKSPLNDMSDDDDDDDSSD
Nature of the assay: affinity purification with mass spectrometry.

On to “Filamin A (endogenous) (from UniProt P21333 1-2647)”, for which the binding entry was “binds”.
